No constants are given. Whether binding was seen depends on the method and setting. Binding seen in cells or lysates may run through a third protein. Some entries that bind do so weakly or less than the wild type. For part of these data: Tags and fused reporters may be left off the sequences shown. Each block holds one binder with its values, some of them ahead of it.
How the values were obtained:
[1] = biological target: T1, Flag-tagged RRM2B, transiently expressed in 293T cells (human) (UniProt Q7LG56); test: co-IP; 293T cells co-transfected with untagged RRM2B or Flag-RRM2B and HA-PYCR1, HA-PYCR2 or HA-PYCRL, lysed 48 hours later; whole cell lysates precipitated with antibodies to HA or Flag; Western blot
T1 sequence: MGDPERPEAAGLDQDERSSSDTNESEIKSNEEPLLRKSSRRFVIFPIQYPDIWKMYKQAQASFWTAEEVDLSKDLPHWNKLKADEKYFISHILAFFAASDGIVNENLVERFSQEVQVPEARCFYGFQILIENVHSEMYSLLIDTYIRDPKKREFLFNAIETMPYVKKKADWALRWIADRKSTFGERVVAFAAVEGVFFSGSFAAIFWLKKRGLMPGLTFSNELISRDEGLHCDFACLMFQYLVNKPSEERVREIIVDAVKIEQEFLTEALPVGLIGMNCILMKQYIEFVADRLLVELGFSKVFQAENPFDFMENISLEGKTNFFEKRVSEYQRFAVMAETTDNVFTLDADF

[2] = biological target: T2, OneStrep-tagged RRM2B (OneStrep at the C-terminus) (human) (UniProt Q7LG56); test: co-IP; whole cell lysates of doxycycline-induced (24 h) 293 T-REx lines expressing epitope-tagged RRM2B, precipitated with anti-Flag beads, anti-HA beads or Strep-Tactin resin; buffer A (50 mM HEPES pH 7.5, 70 mM potassium acetate, 5 mM magnesium acetate), 4 °C; Western blot; untagged RRM2B cells as control
T2 sequence: T1 sequence

[3] = biological target: T3, Flag-tagged RRM2B (Flag at the N-terminus), ribonucleotide reductase small subunit B (human) (UniProt Q7LG56); test: as above
T3 sequence: T1 sequence

[4] = biological target: T4, Flag-tagged RRM2B (Flag at the C-terminus) (human) (UniProt Q7LG56); test: as above
T4 sequence: T1 sequence

[5] = biological target: T5, HA-tagged RRM2B (HA at the C-terminus) (human) (UniProt Q7LG56); test: as above
T5 sequence: T1 sequence

[6] = biological target: T6, Endogenous RRM2B, ribonucleotide reductase small subunit B (human (endogenous in 293T)) (UniProt Q7LG56); test: co-IP; endogenous proteins; whole cell lysate of proliferating 293T cells precipitated with antibodies to RRM2B, PYCR1 or PYCR2 or control rabbit or mouse IgG; Western blot
T6 sequence: T1 sequence

binding [1]: binds
B1: HA-tagged pyrroline-5-carboxylate reductase-like (PYCRL) (protein, UniProt Q53H96 1-274)
chain: MAAAEPSPRRVGFVGAGRMAGAIAQGLIRAGKVEAQHILASAPTDRNLCHFQALGCRTTHSNQEVLQSCLLVIFATKPHVLPAVLAEVAPVVTTEHILVSVAAGVSLSTLEELLPPNTRVLRVLPNLPCVVQEGAIVMARGRHVGSSETKLLQHLLEACGRCEEVPEAYVDIHTGLSGSGVAFVCAFSEALAEGAVKMGMPSSLAHRIAAQTLLGTAKMLLHEGQHPAQLRSDVCTPGGTTIYGLHALEQGGLRAATMSAVEAATCRAKELSRK

binding [2]: binds | binding [3]: binds | binding [4]: binds | binding [5]: binds | binding [6]: binds
B2: RRM2, ribonucleotide reductase small subunit (protein, UniProt P31350 1-389)
chain: MLSLRVPLAPITDPQQLQLSPLKGLSLVDKENTPPALSGTRVLASKTARRIFQEPTEPKTKAAAPGVEDEPLLRENPRRFVIFPIEYHDIWQMYKKAEASFWTAEEVDLSKDIQHWESLKPEERYFISHVLAFFAASDGIVNENLVERFSQEVQITEARCFYGFQIAMENIHSEMYSLLIDTYIKDPKEREFLFNAIETMPCVKKKADWALRWIGDKEATYGERVVAFAAVEGIFFSGSFASIFWLKKRGLMPGLTFSNELISRDEGLHCDFACLMFKHLVHKPSEERVREIIINAVRIEQEFLTEALPVKLIGMNCTLMKQYIEFVADRLMLELGFSKVFRVENPFDFMENISLEGKTNFFEKRVGEYQRMGVMSSPTENSFTLDADF

Reference: article PMC4702135
